Measurements as given in paper PMC10104659.
These are yes or no findings as the source states them, for the method shown. Binding seen in cells or lysates may run through a third protein. Some binding calls cover weakened binding; strength is not graded here.

Protein sequences, listed by entry. Tags and fused reporters are not part of them. Lines headed by an entry give the natural chain unless they say otherwise; changes in a name come on top. Chains listed by the source or under a name are the forms on record and can include a tag or linker. Residues count along the entry.
UniProt P23458: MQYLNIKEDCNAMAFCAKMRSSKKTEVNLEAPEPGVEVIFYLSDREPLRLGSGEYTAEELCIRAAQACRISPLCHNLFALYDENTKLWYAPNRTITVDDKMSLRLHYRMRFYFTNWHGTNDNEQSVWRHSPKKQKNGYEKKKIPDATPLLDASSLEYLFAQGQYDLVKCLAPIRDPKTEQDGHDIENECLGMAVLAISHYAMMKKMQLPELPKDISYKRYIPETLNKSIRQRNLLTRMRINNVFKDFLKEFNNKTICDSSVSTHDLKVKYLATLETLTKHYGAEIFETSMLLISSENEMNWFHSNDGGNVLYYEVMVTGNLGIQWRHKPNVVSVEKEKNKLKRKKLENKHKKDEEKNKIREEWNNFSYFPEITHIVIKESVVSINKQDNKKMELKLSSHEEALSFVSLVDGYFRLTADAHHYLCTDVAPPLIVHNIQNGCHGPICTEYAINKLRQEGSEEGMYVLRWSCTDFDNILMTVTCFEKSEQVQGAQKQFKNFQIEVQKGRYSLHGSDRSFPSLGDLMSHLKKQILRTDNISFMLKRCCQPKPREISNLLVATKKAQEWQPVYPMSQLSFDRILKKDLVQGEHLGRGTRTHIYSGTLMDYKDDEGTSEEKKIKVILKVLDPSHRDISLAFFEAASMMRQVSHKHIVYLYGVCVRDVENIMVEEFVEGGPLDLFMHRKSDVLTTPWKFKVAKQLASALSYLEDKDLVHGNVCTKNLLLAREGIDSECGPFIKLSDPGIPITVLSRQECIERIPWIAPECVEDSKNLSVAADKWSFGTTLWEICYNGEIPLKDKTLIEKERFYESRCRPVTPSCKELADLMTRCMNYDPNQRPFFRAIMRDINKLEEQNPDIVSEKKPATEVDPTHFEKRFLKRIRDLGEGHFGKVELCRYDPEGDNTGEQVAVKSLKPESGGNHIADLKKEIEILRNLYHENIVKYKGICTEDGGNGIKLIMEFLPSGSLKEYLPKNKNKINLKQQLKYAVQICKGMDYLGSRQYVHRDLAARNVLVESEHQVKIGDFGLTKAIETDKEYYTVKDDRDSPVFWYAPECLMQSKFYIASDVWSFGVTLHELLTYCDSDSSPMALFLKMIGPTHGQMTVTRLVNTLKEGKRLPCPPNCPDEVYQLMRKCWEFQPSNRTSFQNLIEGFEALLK
Flag-tagged truncated JAK1, domains 1-3 (1-855): residues 1-855 of P23458
Flag-tagged truncated JAK1, domain 4 (875-1154), kinase domain: residues 875-1154 of P23458
UniProt Q8N3D4: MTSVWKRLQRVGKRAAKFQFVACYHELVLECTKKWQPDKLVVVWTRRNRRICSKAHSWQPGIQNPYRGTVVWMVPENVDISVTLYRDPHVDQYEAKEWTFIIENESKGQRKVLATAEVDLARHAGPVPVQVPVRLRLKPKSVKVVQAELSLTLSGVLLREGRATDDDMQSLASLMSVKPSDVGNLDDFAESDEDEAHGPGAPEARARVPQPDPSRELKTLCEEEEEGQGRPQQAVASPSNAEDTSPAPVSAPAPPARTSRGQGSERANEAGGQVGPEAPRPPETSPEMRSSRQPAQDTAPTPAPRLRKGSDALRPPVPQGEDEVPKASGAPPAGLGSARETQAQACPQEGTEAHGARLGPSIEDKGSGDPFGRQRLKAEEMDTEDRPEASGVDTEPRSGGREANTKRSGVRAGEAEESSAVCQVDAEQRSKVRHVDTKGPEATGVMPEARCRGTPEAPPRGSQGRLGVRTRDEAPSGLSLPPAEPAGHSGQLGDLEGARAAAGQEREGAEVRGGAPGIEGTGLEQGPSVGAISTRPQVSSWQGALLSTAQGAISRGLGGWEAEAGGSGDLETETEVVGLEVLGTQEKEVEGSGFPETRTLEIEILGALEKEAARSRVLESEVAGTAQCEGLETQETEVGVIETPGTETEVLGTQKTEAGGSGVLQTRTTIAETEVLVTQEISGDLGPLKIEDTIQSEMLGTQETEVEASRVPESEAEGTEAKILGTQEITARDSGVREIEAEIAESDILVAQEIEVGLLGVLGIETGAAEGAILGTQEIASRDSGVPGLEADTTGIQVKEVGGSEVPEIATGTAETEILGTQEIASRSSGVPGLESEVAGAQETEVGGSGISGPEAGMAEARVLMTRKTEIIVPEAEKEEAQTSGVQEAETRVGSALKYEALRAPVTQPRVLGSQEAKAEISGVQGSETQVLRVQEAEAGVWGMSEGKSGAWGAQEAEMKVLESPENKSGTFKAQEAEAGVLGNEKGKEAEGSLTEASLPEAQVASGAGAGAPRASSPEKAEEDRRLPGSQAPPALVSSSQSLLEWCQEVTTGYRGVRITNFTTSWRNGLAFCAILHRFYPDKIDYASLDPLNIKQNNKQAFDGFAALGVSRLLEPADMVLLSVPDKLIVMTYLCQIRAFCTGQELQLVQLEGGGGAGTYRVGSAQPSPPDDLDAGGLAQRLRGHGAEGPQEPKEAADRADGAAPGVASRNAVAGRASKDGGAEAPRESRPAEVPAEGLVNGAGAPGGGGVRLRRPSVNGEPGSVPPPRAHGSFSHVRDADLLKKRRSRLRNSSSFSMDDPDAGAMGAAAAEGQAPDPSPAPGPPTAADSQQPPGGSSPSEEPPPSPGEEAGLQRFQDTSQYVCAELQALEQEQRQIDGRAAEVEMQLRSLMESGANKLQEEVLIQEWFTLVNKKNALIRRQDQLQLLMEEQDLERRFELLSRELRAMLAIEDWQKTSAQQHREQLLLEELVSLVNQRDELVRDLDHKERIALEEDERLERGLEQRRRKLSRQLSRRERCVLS

Tests used:
[1] = biological target: Flag-tagged truncated JAK1, domains 1-3 (1-855) (UniProt P23458); assay: co-IP; 786-O cells transfected with Flag-JAK1 constructs; immunoprecipitation with anti-Flag antibody (against JAK1), immunoblot with anti-Flag or anti-EHBP1L1
[2] = biological target: Flag-tagged truncated JAK1, domain 4 (875-1154), kinase domain (UniProt P23458); assay: as above
[3] = biological target: JAK1 (Janus kinase 1), endogenous (human (endogenous in 786-O and A-498)) (UniProt P23458); assay: co-IP; endogenous EHBP1L1 and JAK1 in 786-O and A-498 cell lysates, with specific monoclonal antibodies; protein A/G magnetic beads, 4 °C overnight

binding [1]: no binding
binding [2]: binds
binding [3]: binds
Substance: EHBP1L1 (EH domain-binding protein 1-like protein 1), endogenous (from UniProt Q8N3D4 1-1523)
